Assay results from PubChem BioAssay AID588497 (NMMLSC, 2011).
Hit rate of the full screen: of about 360,000 compounds, about 780 (0.22%) were called active. This list was built around the results that the source calls inconclusive (neither active nor inactive); the mix of calls is not that of the screen. Cut-off read from the data, not from the text of the source: active = inhibition above about 35% (passing the limit was not always enough); inconclusive = no clear call, values can overlap the other calls.

System: Botulinum neurotoxin type F light chain protease (Clostridium botulinum)
Test: BoNT/F light chain protease inhibitors, primary screen, biochemical, flow cytometry, MLPCN library (AID 588497); note: plate controls were buffer without enzyme for full effect and enzyme alone for no effect
Details: Multiplex microsphere protease cleavage assay, at 10 µM, active compounds read high

Row | SMILES | inhibition
1 | Clc1ccc(-c2cccc3nccn23)c(Cl)c1 | inactive: -5.9%
2 | N#CCCn1c(-c2nonc2NC(=O)c2ccccc2Cl)nc2ccccc21 | inactive: -14.9%
3 | Cc1ccc(CN2CCC(c3cc(-c4ccc(Cl)cc4)n[nH]3)CC2)cc1 | inconclusive: -21.6%
4 | FC(F)(F)COc1ccc(-c2nnc(SCc3ccccc3)o2)cn1 | inconclusive: -8.8%
5 | CC(C)(C)C(=O)OC/C(N)=N/OC(=O)c1ccc(Cl)cc1 | inconclusive: -23.8%
6 | C/C(=N\NC(=O)CN1CCN(c2ccc(F)cc2)CC1)c1ccco1 | inconclusive: 56.9%
7 | CC(=O)NNC(=O)c1csc(Cc2c(Cl)sc3ccc(Cl)cc23)n1 | inconclusive: -73.9%
8 | Oc1c(Cl)cc(Cl)cc1CNc1nccs1 | inconclusive: -0.2%
9 | COc1ccc2nc(C)cc(Sc3nc4ccccc4s3)c2c1 | inactive: 8.7%
10 | O=C(CCl)NCc1c(Cl)cccc1-n1cccc1 | inactive: -3.1%
11 | CC(=O)c1c(N2CCN(c3cccc(Cl)c3)CC2)nc(=S)n(-c2ccccc2)c1C | inactive: -31.5%
12 | Oc1ccc(NC(=S)Nc2ccc(F)cc2)cc1 | inconclusive: -4.9%
13 | COc1cccc(C(=O)N(Cc2cc3cc(C)ccc3[nH]c2=O)CC2CCCO2)c1 (stereo not drawn) | inconclusive: 0.9%
14 | O=C(c1ccccc1Br)N1CCN(c2ccccn2)CC1 | inconclusive: -32.3%
15 | CCN(CC)CCCNC(=O)/C=C/C(=O)O | inconclusive: 10.5%
16 | CCOC(=O)c1cnc(SCc2nc(N)nc(Nc3ccc(OC)cc3)n2)nc1N | inconclusive: -27.4%
17 | CCOc1ccccc1-n1c(SCC(=O)N(CC)CC)nnc1-c1ccccn1 | inconclusive: 30.3%
18 | COc1ccccc1N1CCN(C(=O)C2C3C=CC4(CN(Cc5ccccc5Cl)C(=O)C24)O3)CC1 (stereo not drawn) | inactive: -0.8%
19 | Cc1ccc(CN2CCN(Cc3cn[nH]c3C3CCCCC3)CC2CCO)cc1 (stereo not drawn) | inactive: -3.3%
20 | N/C(=N\S(=O)(=O)c1cc(C(F)(F)F)cc(C(F)(F)F)c1)c1ccc(Cl)cc1 | inconclusive: 38%
21 | COc1ccc(C2NC(=O)CS2)cc1 (stereo not drawn) | inconclusive: -3.1%
22 | CCOC(=O)c1ccc(NC(=O)C2CC3CCC2C3)cc1 (stereo not drawn) | inconclusive: -12%
23 | CC(C)(C)OC(=O)N1CCCN(C(c2ccnc3ccccc23)c2nnnn2-c2ccc3c(c2)OCCO3)CC1 (stereo not drawn) | inactive: 5.4%
24 | CC(=O)Nc1ccc(C2(O)COc3ccccc3O2)cc1 (stereo not drawn) | inconclusive: -12%

Excerpt, compounds 2–5
Row | SMILES | inhibition
2 | N#CCCn1c(-c2nonc2NC(=O)c2ccccc2Cl)nc2ccccc21 | inactive: -14.9%
3 | Cc1ccc(CN2CCC(c3cc(-c4ccc(Cl)cc4)n[nH]3)CC2)cc1 | inconclusive: -21.6%
4 | FC(F)(F)COc1ccc(-c2nnc(SCc3ccccc3)o2)cn1 | inconclusive: -8.8%
5 | CC(C)(C)C(=O)OC/C(N)=N/OC(=O)c1ccc(Cl)cc1 | inconclusive: -23.8%

Grouped by structure, those above with a CF3 group.
Row | SMILES | inhibition
4 | FC(F)(F)COc1ccc(-c2nnc(SCc3ccccc3)o2)cn1 | inconclusive: -8.8%
20 | N/C(=N\S(=O)(=O)c1cc(C(F)(F)F)cc(C(F)(F)F)c1)c1ccc(Cl)cc1 | inconclusive: 38%

Looked up above:
Entry of CCOC(=O)c1ccc(NC(=O)C2CC3CCC2C3)cc1 (stereo not drawn) under inhibition: inconclusive: -12%
Entry of COc1cccc(C(=O)N(Cc2cc3cc(C)ccc3[nH]c2=O)CC2CCCO2)c1 (stereo not drawn) under inhibition: inconclusive: 0.9%

Following part.

Row | SMILES | inhibition
25 | O=C(NCC(F)(F)F)c1ccc2sc([C@H]3C[C@H](O)[C@@H](CO)O3)nc2c1 | inactive: -4.2%
26 | CC(=O)Nc1ccc(NC(=O)c2sc(-c3ccccc3)nc2C)cc1 | active: 42.8%
27 | COc1ccc(C2C3=C(CCCC3=O)N(CC(=O)O)C3=C2C(=O)CCC3)cc1Cl | inconclusive: -11.7%
28 | NC(=O)COc1cc2oc(=O)c3c(c2cc1Cl)CCCC3 | inconclusive: -66%
29 | O=C(CCc1ccccc1)Nc1ccc2c(c1)C(=O)OC2 | inactive: 26.6%
30 | CCOc1cccc(-c2c(C(=O)N/N=C(\C)c3cccnc3)nnn2-c2nonc2N)c1 | inactive: 3.1%
31 | COc1cc2c(C(=O)NCCCOC(C)C)cn(CC(C)C)c(=O)c2cc1OC | inconclusive: 1.4%
32 | COc1ccc(NC(=O)c2c([N+](=O)[O-])c(C(C)(C)C)nn2C)cc1 | inconclusive: 10.8%
33 | CC1=C(C(=O)OCc2ccccc2)C(c2cccc([N+](=O)[O-])c2)NC(=O)N1C (stereo not drawn) | inconclusive: -12.1%
34 | Cc1ccc(S(=O)(=O)N2CCCC(CCC(=O)NCc3ccccc3F)C2)s1 (stereo not drawn) | inactive: -2.9%
35 | CSc1nsc(SC)c1C(=O)Nc1ccc(C(C)(C)C)cc1 | inconclusive: -43.9%
36 | CCc1nc(NCCO)c(C#N)c2c1CSC(C)(C)C2 | inconclusive: -165%
37 | Cc1ccc(-c2csc(N=C(N)N)n2)cc1 | inconclusive: 37.4%
38 | COC(=O)Cn1cc(C(=O)OC)c2ccccc21 | inconclusive: 30%
39 | FC(F)(F)c1ccc(Sc2n[nH]c(C(F)(F)F)n2)nc1 | inconclusive: 38.3%
40 | COc1ccc(C(C#N)c2ccc(=O)[nH]n2)cc1 (stereo not drawn) | inactive: 0.4%
41 | O=C(CSc1ccccc1)NCCc1ccccc1 | inconclusive: 6.6%
42 | COc1cccc(S(=O)(=O)NCc2ccc(C(=O)NCC3CCCO3)cc2)c1 (stereo not drawn) | active: 37.7%
43 | CCC(=O)Oc1ccc2c(C)cc(=O)oc2c1C | inconclusive: -33.9%
44 | COCCNC(=O)C1Cc2cc(S(=O)(=O)N3CCCC3)ccc2N1C(C)=O (stereo not drawn) | inactive: 5.4%
45 | Cc1ccc(N=Cc2cc(Cl)cc(Cl)c2O)nc1 | active: 34.6%
46 | Cc1ccc(CS(=O)(=O)Cc2ccc(C(=O)NCCCN3CCOCC3)o2)cc1 | inactive: -8.1%
47 | CC(C)NC(=O)c1ccc(CNC(=O)OCC(F)(F)F)cc1 | inconclusive: -18.5%
48 | COc1ccc(/C=N/Nc2cc(C)nc(NS(=O)(=O)c3ccc(C)cc3)n2)cc1 | inactive: -1.9%

Row | SMILES | inhibition
49 | CC1(C)Cc2nc3nc(SCC(=O)NCCc4ccccc4)n(-c4ccccc4)c(=O)c3cc2CO1 | inactive: 3.9%
50 | COc1ccc(N2CCN(c3oc(-c4ccco4)nc3C#N)CC2)cc1 | inactive: 6.4%
51 | Cc1cc2ccccn2c1C(=O)c1cc([N+](=O)[O-])cc([N+](=O)[O-])c1 | inactive: -3.9%
52 | CCCCSc1nc(C)cc(SCC(=O)N/N=C/c2cccc(OC)c2O)n1 | inactive: -6%
53 | N#Cc1ccccc1NS(=O)(=O)c1cc2c3c(c1)CCN3C(=O)CC2 | inconclusive: 4.7%
54 | CC(=O)c1c(COC(=O)c2ccc(Cl)cc2)nc2ccccc2[n+]1[O-] | inconclusive: -90.2%
55 | Cc1cc(Cl)nc2ccc(Cc3ccc4nc(Cl)cc(C)c4c3)cc12 | inconclusive: -11%
56 | O=C(OCn1nnc2ccccc2c1=O)c1cn(-c2ccccc2)nc1-c1cccnc1 | inconclusive: -11.7%
57 | COc1ccc(/C=N/NC(=O)c2ccncc2)c(OC)c1 | inconclusive: -60.3%
58 | COCC(=O)N1CCCC(C(=O)c2ccc(C(F)(F)F)cc2)C1 (stereo not drawn) | inconclusive: 20.1%
59 | Cc1ccc(CN(C(=O)c2csnn2)C(C(=O)NC2CCCC2)c2ccccn2)cc1 (stereo not drawn) | inactive: -5.1%
60 | COC(=O)C1=C(Nc2ccccc2NC(=O)c2ccccc2C(=O)O)CSC1 | inconclusive: -106%
61 | Cc1nnc2nc(-c3ccccc3)nc(-c3ccccc3)n12 | inconclusive: -11.9%
62 | CNc1cc(CSC)nc(SCc2ccc(Cl)cc2Cl)n1 | inactive: -4%
63 | C[N+]12CCC(CC1)C(C(O)(c1cccc(Cl)c1)c1cccc(Cl)c1)C2 (stereo not drawn) | inconclusive: 39.7%
64 | Cc1nc(CC(=O)c2ccc(O)c(C)c2O)cs1 | inactive: 0.6%
65 | O=C(NCCCN1CCCC1=O)c1ccc(Cl)c(S(=O)(=O)N2CCCCC2)c1 | inconclusive: -15%
66 | COc1ccc(Br)cc1C1SCCN1S(C)(=O)=O (stereo not drawn) | inconclusive: -7.5%
67 | CCN1CCC(NCC2CCCCC2)CC1 | inconclusive: 6.6%
68 | O=C(Nc1ccccc1)Nc1nnc(Cc2ccccc2F)s1 | inconclusive: -1.3%
69 | CN1c2ccccc2C(=O)C(=C2SCCCS2)S1(=O)=O | inconclusive: -25.5%
70 | CCOc1ccccc1N=Nc1c(C)[nH]n(C(N)=S)c1=O | active: 56.5%
71 | CCCCCCCCCS(=O)(=O)N/N=C/c1cccc([N+](=O)[O-])c1 | inactive: 0.9%
72 | COc1ccc(OC)c(/C=C2\SC(=S)N(N3CCOCC3)C2=O)c1 | inconclusive: 34.5%

Row | SMILES | inhibition
73 | Cc1ccc(S(=O)(=O)Nc2cc(=O)[nH]c3c2CCC3)cc1 | inconclusive: -54.3%
74 | O=c1oc2cc(OCCO)ccc2c2c1CCCC2 | inconclusive: 19.3%
75 | CC(C)(C)C1CCC(N2CCN(c3ccccc3)CC2)CC1 (stereo not drawn) | inactive: -1.5%
76 | COc1ccc(NC(=O)CN2CCN(CC(=O)Nc3ccc(OC)cc3)CC2)cc1 | inconclusive: -13.8%
77 | O=C(NC1CC(=O)N(c2ccc(F)cc2)C1)C(=O)c1c[nH]c2ccccc12 (stereo not drawn) | inactive: 5%
78 | O=[N+]([O-])c1cc(C(F)(F)F)cc([N+](=O)[O-])c1NN=C1CCCCC1 | inactive: -3.2%
79 | CNC(=O)NNC(=O)c1onc(-c2c(Cl)cccc2Cl)c1C(=O)OC | inconclusive: 44.5%
80 | O=C(Nc1ccc(-c2n[nH]c(=S)o2)cc1)c1ccccc1 | inconclusive: 16.2%
81 | Cc1ccc(-n2nc(C)c3c2NC2=C(C(=O)CC(C)(C)C2)C3c2ccccc2OCC(=O)O)cc1 (stereo not drawn) | inactive: -5.8%
82 | CCOC(=O)C(Cc1ccccc1)C(=O)NCc1ccccc1 (stereo not drawn) | inconclusive: -24.6%
83 | COc1cccc2c1-c1c(O)cccc1C2=O | inconclusive: 0.9%
84 | Fc1ccc(-c2ccnc3nc(N4CCOCC4)nn23)cc1 | inactive: -2.7%
85 | CCOC(=O)Cn1c(C)c(Br)c(COC)c(C#N)c1=O | inconclusive: -87.6%
86 | S=c1[nH]nc(-c2cc(-c3ccccc3)n[nH]2)n1/N=C/c1c(Cl)cccc1Cl | inconclusive: -12.1%
87 | CCCCN1C(=O)/C(=C/C=C2/CC(C)(C)CN2C)SC1=S | inactive: -2.3%
88 | Cc1cc(Cl)cc(Cl)c1OCCN1CCCC1 | inconclusive: -10.7%
89 | CC(C)c1ccccc1OCC(=O)Nc1ccc2[nH]ncc2c1 | inconclusive: -60.3%
90 | Cc1c(C(=O)NCc2cccs2)oc2ccc(Br)cc12 | inconclusive: 41.5%
91 | O=C(N/N=C(\CC(=O)c1cccs1)C(F)(F)F)c1cccnc1 | inconclusive: -10.9%
92 | CC(C)CNC(=O)c1cccc2c1-c1ccccc1C2=O | inconclusive: 18.9%
93 | COc1ccc(OC)c(CN2CCN(C(=O)CCC(=O)c3cccs3)CC2)c1 | inconclusive: 61.8%
